PubChem BioAssay AID493246, Drosophila RNAi Screening Center, 2011
The screen tested about 21,000 reagents; this is a random part of those that have a named target and a result. In the full data, 429 (2%) got an active call. 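Values are raw and not normalised between plates; calls rest on per-plate z-scores that were not deposited.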 Reagents against one gene are numbered here. Names joined by + are all predicted targets of the reagent. The record does not give: the amount of reagent, the time to read-out.

Screen: 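Genes fly cells need to grow and stay alive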 (primary screen)
Cell system: Drosophila Kc and S2R+ cells
Knock-down reagent: long dsRNA against Drosophila genes
Measurement: 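Cell number per well after knock-down, printed as raw plate values; calls were based on per-plate z-scores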
Scale: Kc cell number and S2R+ cell number: higher = more cells remaining
Hit rule: 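Active when the per-plate z-score of cell number is 3 or more in the direction of fewer cells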

no.	gene knocked down	reagent	Kc cell number, rep 1	Kc cell number, rep 2	S2R+ cell number, rep 1	S2R+ cell number, rep 2	activity call
1	wac	1	1.66e6	8.87e5	1.10e6	1.22e6	inactive
2	CG34047 (retired record)	1	1.39e6	1.34e6	1.01e6	1.12e6	inactive
3	CG2574	1	1.57e6	1.69e6	1.18e6	1.31e6	inactive
4	CG8620	1	1.59e6	1.45e6	1.13e6	1.20e6	inactive
5	CG17191	1	1.54e6	1.56e6	1.02e6	1.21e6	inactive
6	CG12590	1	1.62e6	1.87e6	1.22e6	1.37e6	inactive
7	CG15653	1	1.77e6	1.91e6	1.19e6	3.18e5	inactive
8	Ski6	1	1.64e6	1.64e6	1.26e6	1.42e6	inactive
9	su(f)	1	1.47e6	1.50e6	1.10e6	1.23e6	inactive
10	CR42546	1	1.49e6	1.50e6	1.25e6	3.01e5	inactive
11	Naus	1	1.35e6	1.60e6	1.25e6	1.22e6	inactive
12	Naus	2	1.47e6	1.57e6	1.05e6	1.10e6	inactive
13	CG15368	1	1.53e6	1.51e6	9.77e5	1.11e6	inactive
14	CG2983	1	1.52e6	1.78e6	1.10e6	1.15e6	inactive
15	RpLP2	1	1.17e6	1.30e6	6.65e5	7.62e5	active
16	CG15011	1	1.27e6	1.47e6	1.17e6	1.00e6	inactive
17	CG14190	1	1.54e6	1.58e6	1.05e6	1.18e6	inactive
18	CG14113	1	1.23e6	1.21e6	1.27e6	1.40e6	inactive
19	CG13220	1	1.47e6	1.49e6	1.23e6	1.27e6	inactive
20	repo	1	1.42e6	1.36e6	9.48e5	1.07e6	inactive
21	CG12869	1	1.54e6	1.66e6	1.34e6	1.43e6	inactive
22	Dnaaf4	1	1.54e6	1.72e6	1.30e6	1.46e6	inactive
23	TTLL6B	1	1.55e6	1.60e6	9.43e5	1.07e6	inactive
24	CG34107	1	1.52e6	1.51e6	1.26e6	1.36e6	inactive
25	RPA1	1	1.41e6	1.48e6	9.86e5	1.11e6	inactive
26	meru	1	1.41e6	1.49e6	1.12e6	1.29e6	inactive
27	meru	2	1.28e6	1.39e6	9.39e5	1.08e6	inactive
28	meru	3	1.37e6	1.36e6	1.25e6	1.33e6	inactive
29	casp	1	1.38e6	1.40e6	1.13e6	1.20e6	inactive
30	CG7131	1	1.79e6	1.96e6	1.25e6	1.38e6	inactive
31	ey	1	1.38e6	1.41e6	9.86e5	1.10e6	inactive
32	CG8372	1	1.30e6	1.35e6	6.43e5	8.98e5	inactive
33	CG42506 (retired record) + CG43759	1	1.81e6	1.85e6	1.14e6	1.19e6	inactive
34	CG42506 (retired record) + CG43759	2	1.46e6	1.45e6	9.72e5	1.10e6	inactive
35	CG5509	1	1.58e6	1.73e6	1.45e6	1.60e6	inactive
36	Cp15	1	1.48e6	1.49e6	1.09e6	1.20e6	inactive
37	CG13074	1	1.26e6	1.34e6	1.30e6	1.36e6	inactive
38	snu	1	5.91e5		8.62e5		inactive
39	ND-B12	1	1.36e6	1.46e6	1.18e6	3.45e5	inactive
40	Ten-a	1	1.15e6	1.50e6	1.09e6	1.09e6	inactive
41	Ten-a	2	9.21e5	8.29e5	4.74e5	5.92e5	active
42	Ten-a	3	1.51e6	1.57e6	1.09e6	1.28e6	inactive
43	Ten-a	4	1.66e6	1.56e6	1.14e6	1.25e6	inactive
44	Ten-a	5	1.62e6	1.51e6	1.15e6	1.29e6	inactive
45	Ten-a	6	1.67e6	1.57e6	1.14e6	1.29e6	inactive
46	Ten-a	7	1.60e6	1.56e6	1.11e6	1.26e6	inactive
47	bab1	1	1.28e6	1.30e6	6.28e5	7.10e5	inactive
48	bab1	2	1.61e6	1.48e6	8.58e5	1.45e6	inactive
49	CG7888	1	1.37e6	1.40e6	1.19e6	1.12e6	inactive
50	CG10280	1	1.62e6	1.98e6	1.24e6	1.41e6	inactive
51	CG7402	1	1.48e6	1.67e6	1.25e6	1.36e6	inactive
52	Ssl1	1	1.75e6	1.73e6	1.28e6	1.31e6	inactive
53	brm	1	1.12e6	1.08e6	1.15e6	1.29e6	inactive
54	CG5245	1	1.45e6	1.49e6	1.25e6	1.31e6	inactive
55	CG13992	1	1.47e6	1.40e6	1.12e6	1.28e6	inactive
56	twin	1	1.52e6	1.64e6	1.17e6	1.21e6	inactive
57	twin	2	1.50e6	1.57e6	9.95e5	1.11e6	inactive
58	THADA	1	1.55e6	1.59e6	1.07e6	1.22e6	inactive
59	Pfdn1	1	1.56e6	1.48e6	1.26e6	1.40e6	inactive

Entries above whose target name starts with M or m:
gene knocked down	reagent	Kc cell number, rep 1	Kc cell number, rep 2	S2R+ cell number, rep 1	S2R+ cell number, rep 2	activity call
meru	1	1.41e6	1.49e6	1.12e6	1.29e6	inactive
meru	2	1.28e6	1.39e6	9.39e5	1.08e6	inactive
meru	3	1.37e6	1.36e6	1.25e6	1.33e6	inactive
